Reference: article PMC8998810
No constants are given. Whether binding was seen depends on the method and setting. A result given as binding can be weak or reduced; the word gives no strength. Where a sequence is shown, tags or fusion partners need not be part of it.

Molecular target: T1, BD-RIN4 (full-length RIN4 fused with the GAL4 DNA-binding domain) (Arabidopsis) (UniProt Q8GYN5)
T1 sequence: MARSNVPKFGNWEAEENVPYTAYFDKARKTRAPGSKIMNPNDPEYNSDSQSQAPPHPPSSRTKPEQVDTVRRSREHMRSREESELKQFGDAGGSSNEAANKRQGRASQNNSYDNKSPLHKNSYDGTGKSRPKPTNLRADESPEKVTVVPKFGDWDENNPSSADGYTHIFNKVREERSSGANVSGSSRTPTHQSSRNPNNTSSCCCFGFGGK
Experiment: two-hybrid; yeast two-hybrid, strain MaV203; BD-RIN4 and AD-AHAs co-transformed; growth on SC/-Leu-Trp-His with 3-AT; empty AD and BD as negative controls

AD-AHA1 (terminal fragment of AHA1 fused with the GAL4 activation domain) (Arabidopsis) (domain or fragment)
binding: binds

AD-AHA2 (terminal fragment of AHA2 fused with the GAL4 activation domain) (Arabidopsis) (domain or fragment)
binding: binds

AD-AHA5 (terminal fragment of AHA5 fused with the GAL4 activation domain) (Arabidopsis) (domain or fragment)
binding: binds
